# Values quoted from earlier work, collected in article PMC5728534 (PLoS ONE, 2017).
# Tested on: OCT2 Ser270 allele
# Conditions: OCT2 Ser270 vs reference; cited from earlier work
structure (smiles),measurement,value
CC(C)[N+]1(C)[C@@H]2CC[C@H]1C[C@@H](OC(=O)C(CO)c1ccccc1)C2 (stereo partly shown) [ipratropium],increase of maximal uptake rates with the Ser270 allele,21%
